Tested on: CTGF receptor on BMS2 cells
Assay: Equilibrium binding of radioiodinated rhCTGF to BMS2 cells
Design: species or system murine
Conditions: FIG. 2

B1: connective tissue growth factor (protein)
chain: QNCSGPCRCPDEPAPRCPAGVSLVLDGCGCCRVCAKQLGELCTERDPCDPHKGLFCHFGSPANRKIGVCTAKDGAPCIFGGTVYRSGESFQSSCKYQCTCLDGAVGCMPLCSMDVRLPSPDCPFPRRVKLPGKCCEEWVCDEPKDQTVVGPALAAYRLEDTFGPDPTMIRANCLVQTTEWSACSKTCGMGISTRVTNDNASCRLEKQSRLCMVRPCEADLEENIKKGKKCIRTPKISKPIKFELSGCTSMKTYRAKFCGVCTDGRCCTPHRTTTLPVEFKCPDGEVMKKNMMFIKTCACHYNCPGDNDIFESLYYRKMYGDMA
notes: recombinant human CTGF produced in baculovirus-infected Hi 5 insect cells, also used radioiodinated
number of high affinity binding sites: less than 50,000 sites per cell | number of low affinity binding sites: greater than 50,000 sites per cell
